33 targets from the supplement of paper PMC12595434, “Development of retinoid nuclear receptor pathway antagonists through targeting aldehyde dehydrogenase 1A3” (iScience, 2025) can be followed below.

Protein sequences, listed by entry. Tags and fused reporters are not part of them. Lines headed by an entry give the natural chain unless they say otherwise; changes in a name come on top.
UniProt P50583: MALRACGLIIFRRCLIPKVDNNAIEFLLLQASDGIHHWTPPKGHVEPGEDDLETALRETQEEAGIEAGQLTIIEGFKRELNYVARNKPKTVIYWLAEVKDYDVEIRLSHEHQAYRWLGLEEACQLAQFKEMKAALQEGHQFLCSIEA
UniProt P41227: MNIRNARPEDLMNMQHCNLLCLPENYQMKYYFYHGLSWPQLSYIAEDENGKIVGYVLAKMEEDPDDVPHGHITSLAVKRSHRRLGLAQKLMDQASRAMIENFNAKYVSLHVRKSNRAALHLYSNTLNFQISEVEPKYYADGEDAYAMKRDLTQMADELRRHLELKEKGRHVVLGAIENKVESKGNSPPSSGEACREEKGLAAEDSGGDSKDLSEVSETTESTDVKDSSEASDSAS
UniProt P51003: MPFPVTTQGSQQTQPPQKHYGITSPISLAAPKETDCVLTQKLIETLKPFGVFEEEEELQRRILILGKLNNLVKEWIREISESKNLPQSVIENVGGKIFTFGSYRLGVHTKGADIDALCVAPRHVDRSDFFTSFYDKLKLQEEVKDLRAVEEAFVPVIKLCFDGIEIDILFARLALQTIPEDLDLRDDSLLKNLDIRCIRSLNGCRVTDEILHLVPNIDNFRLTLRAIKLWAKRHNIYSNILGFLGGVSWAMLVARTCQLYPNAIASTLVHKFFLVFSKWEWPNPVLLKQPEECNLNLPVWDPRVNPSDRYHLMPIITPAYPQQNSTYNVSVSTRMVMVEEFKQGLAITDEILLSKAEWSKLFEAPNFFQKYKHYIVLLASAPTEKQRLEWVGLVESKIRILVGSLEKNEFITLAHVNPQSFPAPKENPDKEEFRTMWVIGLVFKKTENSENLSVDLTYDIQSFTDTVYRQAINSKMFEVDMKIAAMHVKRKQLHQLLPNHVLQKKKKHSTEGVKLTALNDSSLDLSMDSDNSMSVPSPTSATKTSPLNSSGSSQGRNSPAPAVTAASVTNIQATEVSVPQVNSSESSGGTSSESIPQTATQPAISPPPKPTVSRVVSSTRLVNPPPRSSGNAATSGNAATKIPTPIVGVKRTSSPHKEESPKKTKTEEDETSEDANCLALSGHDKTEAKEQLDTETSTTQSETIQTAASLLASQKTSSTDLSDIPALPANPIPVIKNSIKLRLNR
UniProt P38398, whole entry, looked up: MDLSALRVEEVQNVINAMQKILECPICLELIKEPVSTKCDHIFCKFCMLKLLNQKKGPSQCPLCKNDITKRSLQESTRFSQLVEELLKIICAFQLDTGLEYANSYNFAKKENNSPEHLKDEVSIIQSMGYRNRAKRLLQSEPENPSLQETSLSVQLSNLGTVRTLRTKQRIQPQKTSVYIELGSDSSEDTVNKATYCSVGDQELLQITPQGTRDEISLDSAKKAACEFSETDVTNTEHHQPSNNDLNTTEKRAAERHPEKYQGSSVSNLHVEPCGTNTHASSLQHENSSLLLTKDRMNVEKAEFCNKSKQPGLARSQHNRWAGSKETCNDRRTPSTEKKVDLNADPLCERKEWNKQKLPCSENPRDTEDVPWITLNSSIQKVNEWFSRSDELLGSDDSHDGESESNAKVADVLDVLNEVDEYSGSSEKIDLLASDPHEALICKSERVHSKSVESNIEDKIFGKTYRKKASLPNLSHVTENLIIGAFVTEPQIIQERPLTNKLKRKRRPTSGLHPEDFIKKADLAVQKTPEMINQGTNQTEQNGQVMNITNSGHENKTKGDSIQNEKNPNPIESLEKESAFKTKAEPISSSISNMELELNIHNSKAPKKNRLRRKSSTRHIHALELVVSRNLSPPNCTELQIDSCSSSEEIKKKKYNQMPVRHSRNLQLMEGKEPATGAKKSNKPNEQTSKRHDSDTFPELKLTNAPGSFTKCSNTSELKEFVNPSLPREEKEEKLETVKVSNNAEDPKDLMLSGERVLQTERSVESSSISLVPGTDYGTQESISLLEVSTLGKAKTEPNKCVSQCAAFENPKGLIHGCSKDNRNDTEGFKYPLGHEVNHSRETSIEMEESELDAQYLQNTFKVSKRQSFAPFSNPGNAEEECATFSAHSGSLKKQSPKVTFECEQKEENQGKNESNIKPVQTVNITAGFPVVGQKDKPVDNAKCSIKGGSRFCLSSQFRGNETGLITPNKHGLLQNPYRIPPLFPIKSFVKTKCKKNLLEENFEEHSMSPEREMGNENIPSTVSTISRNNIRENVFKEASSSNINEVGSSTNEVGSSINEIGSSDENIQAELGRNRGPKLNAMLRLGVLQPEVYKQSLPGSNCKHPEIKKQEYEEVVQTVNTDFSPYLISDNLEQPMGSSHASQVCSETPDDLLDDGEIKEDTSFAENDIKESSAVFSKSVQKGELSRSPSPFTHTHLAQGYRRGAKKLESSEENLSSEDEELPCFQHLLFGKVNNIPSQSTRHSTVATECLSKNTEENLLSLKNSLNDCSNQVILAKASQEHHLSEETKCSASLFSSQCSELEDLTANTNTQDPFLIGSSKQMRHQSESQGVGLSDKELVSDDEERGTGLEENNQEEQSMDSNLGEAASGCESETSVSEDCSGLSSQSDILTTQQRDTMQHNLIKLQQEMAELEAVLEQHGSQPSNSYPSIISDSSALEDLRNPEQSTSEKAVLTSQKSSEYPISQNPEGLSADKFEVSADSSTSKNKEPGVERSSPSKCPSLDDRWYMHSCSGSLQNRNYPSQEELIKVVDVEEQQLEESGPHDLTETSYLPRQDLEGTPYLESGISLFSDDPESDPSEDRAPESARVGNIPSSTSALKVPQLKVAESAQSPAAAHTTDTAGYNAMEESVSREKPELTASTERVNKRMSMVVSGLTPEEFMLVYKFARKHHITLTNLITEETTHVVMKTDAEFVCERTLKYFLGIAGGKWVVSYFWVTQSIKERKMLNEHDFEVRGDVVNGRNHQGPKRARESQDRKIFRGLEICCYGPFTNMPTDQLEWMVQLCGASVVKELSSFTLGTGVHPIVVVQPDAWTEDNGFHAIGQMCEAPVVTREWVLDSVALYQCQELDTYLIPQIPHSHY
UniProt P50579: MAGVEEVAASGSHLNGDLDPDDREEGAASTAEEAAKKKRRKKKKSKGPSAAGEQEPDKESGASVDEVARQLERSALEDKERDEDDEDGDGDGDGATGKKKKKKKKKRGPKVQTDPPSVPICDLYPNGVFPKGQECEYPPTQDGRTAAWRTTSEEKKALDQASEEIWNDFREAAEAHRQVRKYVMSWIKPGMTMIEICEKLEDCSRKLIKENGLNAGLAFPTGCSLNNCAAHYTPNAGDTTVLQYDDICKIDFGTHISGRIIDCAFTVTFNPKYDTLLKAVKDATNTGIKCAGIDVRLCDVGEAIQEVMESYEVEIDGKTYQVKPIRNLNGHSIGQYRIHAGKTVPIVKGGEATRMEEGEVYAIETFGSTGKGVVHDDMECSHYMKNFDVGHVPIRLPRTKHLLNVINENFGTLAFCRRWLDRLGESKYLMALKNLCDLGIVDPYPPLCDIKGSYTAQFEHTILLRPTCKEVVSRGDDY
UniProt P37287: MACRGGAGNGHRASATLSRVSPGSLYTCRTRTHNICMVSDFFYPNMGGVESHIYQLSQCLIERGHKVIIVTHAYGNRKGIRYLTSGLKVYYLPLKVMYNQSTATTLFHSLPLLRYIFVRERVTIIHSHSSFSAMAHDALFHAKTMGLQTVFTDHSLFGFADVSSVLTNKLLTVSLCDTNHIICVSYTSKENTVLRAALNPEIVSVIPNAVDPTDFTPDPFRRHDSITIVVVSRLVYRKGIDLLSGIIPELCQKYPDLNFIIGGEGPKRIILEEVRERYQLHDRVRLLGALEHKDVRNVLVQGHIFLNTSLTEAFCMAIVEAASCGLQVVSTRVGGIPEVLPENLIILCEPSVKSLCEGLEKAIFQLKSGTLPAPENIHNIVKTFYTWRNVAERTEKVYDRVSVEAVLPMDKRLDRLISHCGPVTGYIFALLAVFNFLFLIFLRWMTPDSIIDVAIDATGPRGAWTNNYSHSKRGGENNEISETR
UniProt P37108: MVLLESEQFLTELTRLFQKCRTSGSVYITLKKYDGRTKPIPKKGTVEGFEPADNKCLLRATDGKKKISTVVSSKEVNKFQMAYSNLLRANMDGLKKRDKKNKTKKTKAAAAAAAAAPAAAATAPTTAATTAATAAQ
UniProt P49841: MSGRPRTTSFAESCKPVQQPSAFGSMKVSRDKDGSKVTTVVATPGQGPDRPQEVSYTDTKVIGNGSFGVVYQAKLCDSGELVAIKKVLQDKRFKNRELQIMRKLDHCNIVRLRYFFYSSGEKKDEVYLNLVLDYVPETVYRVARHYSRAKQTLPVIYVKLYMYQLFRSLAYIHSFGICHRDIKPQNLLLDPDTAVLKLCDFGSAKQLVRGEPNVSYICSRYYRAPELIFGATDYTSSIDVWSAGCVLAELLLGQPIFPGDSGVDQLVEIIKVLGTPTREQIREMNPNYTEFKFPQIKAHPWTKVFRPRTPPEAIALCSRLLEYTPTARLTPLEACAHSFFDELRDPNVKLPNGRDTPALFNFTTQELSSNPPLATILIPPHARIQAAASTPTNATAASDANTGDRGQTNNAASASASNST
UniProt P49641: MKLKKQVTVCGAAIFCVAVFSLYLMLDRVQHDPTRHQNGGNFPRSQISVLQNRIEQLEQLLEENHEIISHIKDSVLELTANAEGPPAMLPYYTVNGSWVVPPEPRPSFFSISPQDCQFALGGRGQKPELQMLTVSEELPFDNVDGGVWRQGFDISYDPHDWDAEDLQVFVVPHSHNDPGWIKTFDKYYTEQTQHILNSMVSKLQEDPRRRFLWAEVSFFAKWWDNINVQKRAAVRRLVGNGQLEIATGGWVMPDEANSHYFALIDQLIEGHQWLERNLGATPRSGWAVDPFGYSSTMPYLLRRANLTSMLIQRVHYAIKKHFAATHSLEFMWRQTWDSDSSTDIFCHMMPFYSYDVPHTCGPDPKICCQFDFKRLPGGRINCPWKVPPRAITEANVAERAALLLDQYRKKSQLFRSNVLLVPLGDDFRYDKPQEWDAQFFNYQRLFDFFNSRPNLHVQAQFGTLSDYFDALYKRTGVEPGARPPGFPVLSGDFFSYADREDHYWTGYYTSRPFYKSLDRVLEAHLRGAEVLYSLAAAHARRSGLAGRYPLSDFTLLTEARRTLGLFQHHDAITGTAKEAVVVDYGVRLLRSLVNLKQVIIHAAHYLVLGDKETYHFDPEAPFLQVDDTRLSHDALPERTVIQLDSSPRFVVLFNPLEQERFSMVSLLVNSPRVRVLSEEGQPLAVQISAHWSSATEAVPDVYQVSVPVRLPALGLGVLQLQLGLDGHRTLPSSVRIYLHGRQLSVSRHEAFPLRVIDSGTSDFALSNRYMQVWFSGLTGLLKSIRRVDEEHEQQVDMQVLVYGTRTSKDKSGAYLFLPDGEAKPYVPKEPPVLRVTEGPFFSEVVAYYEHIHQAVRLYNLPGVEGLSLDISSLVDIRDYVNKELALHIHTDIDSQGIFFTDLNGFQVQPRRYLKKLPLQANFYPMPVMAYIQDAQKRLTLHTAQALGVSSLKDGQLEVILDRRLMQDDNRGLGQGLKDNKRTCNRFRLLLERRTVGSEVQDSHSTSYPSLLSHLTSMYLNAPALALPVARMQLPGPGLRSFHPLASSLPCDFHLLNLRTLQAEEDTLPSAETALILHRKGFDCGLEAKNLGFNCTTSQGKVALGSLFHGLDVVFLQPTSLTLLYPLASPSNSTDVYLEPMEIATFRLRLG
UniProt P42566: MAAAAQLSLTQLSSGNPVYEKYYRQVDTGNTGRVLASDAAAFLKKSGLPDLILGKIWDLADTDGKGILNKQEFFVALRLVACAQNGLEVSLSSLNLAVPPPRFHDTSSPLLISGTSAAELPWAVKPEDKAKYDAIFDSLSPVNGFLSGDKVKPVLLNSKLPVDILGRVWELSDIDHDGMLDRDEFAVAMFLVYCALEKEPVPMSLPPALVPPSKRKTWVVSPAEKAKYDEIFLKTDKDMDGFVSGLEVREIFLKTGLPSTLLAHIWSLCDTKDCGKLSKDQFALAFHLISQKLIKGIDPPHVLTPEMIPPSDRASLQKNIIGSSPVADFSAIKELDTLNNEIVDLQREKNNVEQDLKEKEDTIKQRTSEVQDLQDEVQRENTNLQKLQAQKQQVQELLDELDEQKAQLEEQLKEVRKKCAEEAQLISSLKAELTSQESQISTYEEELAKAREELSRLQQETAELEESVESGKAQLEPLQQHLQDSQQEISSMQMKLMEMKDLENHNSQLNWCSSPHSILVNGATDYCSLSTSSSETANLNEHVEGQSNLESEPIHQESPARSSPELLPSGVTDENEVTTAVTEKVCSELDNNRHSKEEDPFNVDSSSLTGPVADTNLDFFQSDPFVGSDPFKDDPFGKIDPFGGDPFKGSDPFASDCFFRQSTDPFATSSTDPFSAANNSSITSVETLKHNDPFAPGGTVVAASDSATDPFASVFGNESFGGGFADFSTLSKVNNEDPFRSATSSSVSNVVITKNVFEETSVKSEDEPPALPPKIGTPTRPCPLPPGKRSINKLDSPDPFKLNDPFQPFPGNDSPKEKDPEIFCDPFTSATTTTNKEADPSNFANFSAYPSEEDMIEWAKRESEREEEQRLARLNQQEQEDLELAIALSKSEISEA

The list shows a part of the results. This is a noisy data set.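 Tm was set to 64 °C where no melting was found, and many curves are irregular.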

Compound in this experiment: CCc1cnccc1C(=O)Nc1cc2c(cc1F)NC(=O)CC2
The experiment is described as follows: melting temperature shift (DMSO Tm minus MBE1-treated Tm) in cellular thermal proteome profiling; higher = less thermal stabilization by MBE1 (negative = stabilized by MBE1). The conditions noted are these: A375; MBE1 concentration: 100 nM.
Consider UniProt P46821, for which the melting temperature shift was -0.693 °C.
Turning to NUDT2 (UniProt P50583), the melting temperature shift was 2.34 °C.
MECP2 (UniProt P51608): the melting temperature shift is -1.92 °C.
For NAA10 (UniProt P41227), the melting temperature shift is -0.389 °C.
The figure for TXLNA (UniProt P40222) is -0.698 °C; for UniProt P51690 it is -1.94 °C; for PRIM2 (UniProt P49643) it is 0.376 °C.
With UniProt P40855 the figure was -4.16 °C; with UniProt P48729, -0.208 °C.
Take PAPOLA (UniProt P51003): the melting temperature shift was 0.0977 °C.
On to UniProt P49674, for which the melting temperature shift is 1.06 °C.
Turning to UniProt P38398, the melting temperature shift is -0.147 °C.
METAP2 (UniProt P50579): the melting temperature shift was -0.788 °C.
Consider UniProt P46379, for which the melting temperature shift stood at 0.617 °C.
In the case of UniProt P41162, the melting temperature shift is -1.61 °C.
For the target HADHA (UniProt P40939), the melting temperature shift was 1.01 °C.
Turning to TRAPPC10 (UniProt P48553), the melting temperature shift amounted to 1.95 °C.
PIGA (UniProt P37287): the melting temperature shift came to 0.57 °C.
With SERPINH1 (UniProt P50454) the figure was -0.812 °C.
In the case of ANP32A (UniProt P39687), the melting temperature shift is -0.753 °C.
Regarding SRP14 (UniProt P37108), the melting temperature shift is -2.56 °C.
For the target HCFC1 (UniProt P51610), the melting temperature shift was -0.657 °C.
With UniProt P49841, the melting temperature shift is -0.912 °C.
Take RANBP2 (UniProt P49792): the melting temperature shift was -0.327 °C.
As for DAP3 (UniProt P51398), the melting temperature shift was -1.82 °C.
Regarding HSPA13 (UniProt P48723), the melting temperature shift is -1.58 °C.
As to KDM5C (UniProt P41229), the melting temperature shift is -0.858 °C.
On to UniProt P49448, for which the melting temperature shift amounted to 0.0886 °C.
As for USP11 (UniProt P51784), the melting temperature shift is -0.211 °C.
In the case of UniProt P49641, the melting temperature shift was -0.845 °C.
As for TUFM (UniProt P49411), the melting temperature shift turned out to be 0.434 °C.
For IREB2 (UniProt P48200), the melting temperature shift was found to be 0.485 °C.
Consider EPS15 (UniProt P42566), for which the melting temperature shift was determined as 0.91 °C.
